Measurements as given in article PMC12040169 (PLOS Biology, 2025).
This is one part of the list.

System: T1, CTL2-GFP (C. trachomatis L2/434/Bu, GFP-expressing)
T1 construct: L2/434/Bu, GFP-expressing
Parameters: species or system HeLa; Intracellular C. trachomatis growth in HeLa cells, bulk GFP fluorescence relative to DMSO
Conditions: bulk GFP, single well; 28.5 h, 10 µM; inhibitor

| SMILES | % of control remaining |
| --- | --- |
| COC(CNC(=O)N(C)Cc1nncn1C(C)C)c1cccs1 (centres unmarked) [CBK306556] | 111.087% |
| CC(C)(C)OC(=O)NCCNC(=O)c1cccnc1NCc1ccc2c(c1)OCO2 [CBK160117] | 109.481% |
| O=S(=O)(Nc1nnn[nH]1)c1ccc(-c2ccccn2)s1 [CBK062589] | 114.794% |
| CCn1c(C)nc2cc(C(=O)NC3CCCOC3)ccc21 (centres unmarked) [CBK282066] | 140.573% |
| O=C(O)C1C2C=CC(C2)C1C(=O)N1CCc2ccccc21 (centres unmarked) [CBK286537] | 126.144% |
| OCCN1CCN(c2cncc(-c3cccc(OC(F)(F)F)c3)n2)CC1 [CBK065941] | 115.974% |
| COc1ccc(Nc2cn(C)nc2C(=O)O)cc1 [CBK269814] | 81.656% |
| N#Cc1c(N)nc(SCC(=O)O)c(C#N)c1-c1ccc(O)cc1 [CBK261270] | 114.133% |
| O=C(O)CC1SC(N/N=C/c2ccco2)=NC1=O (centres unmarked) [CBK261371] | 119.482% |
| O=C(c1cnc2ccccc2c1)N1CCc2ccccc21 [CBK200284] | 178.231% |
| COc1ccc(NC(=O)CSc2nc(O)cc(-c3ccccc3)n2)cc1OC [CBK263657] | 128.354% |
| COc1ccc(/C=C/c2nc3ccccc3s2)cc1S(=O)(=O)N1CCOCC1 [CBK269373] | 150.615% |
| CC[C@@H](Cn1ncc2ccccc2c1=O)NC(=O)CC1c2ccccc2Oc2ccccc21 [CBK286174] | 143.439% |
| O=C(O)CCC1=C2c3ccccc3CCN2C(=O)CC1 [CBK286945] | 94.8712% |
| Cc1nnc(SCc2cc(=O)nc(Nc3nc(C)c4ccccc4n3)[nH]2)s1 [CBK266549] | 131.774% |
| CC1=CC(c2ccc(Cl)cc2)n2nc(NC(=O)CCC(=O)O)nc2N1 (centres unmarked) [CBK264331] | 100% |
| COc1ccc(C2CCN(CC(=O)NC(C)(C)C)CC2)cc1 [CBK283558] | 108.848% |
| O=C(c1n[nH]c2c1CCCC2)N1CCc2ncc(Cl)cc2C1 [CBK284975] | 116.466% |
| Nc1cc2cccnc2nc1-c1cc(F)cc(F)c1 [CBK067604] | 122.835% |
| Cc1ccc(S(=O)(=O)N2CC[C@@H]3C[C@H](NC(=O)C4CC4C)[C@@H]32)cc1 (some centres unmarked) [CBK284968] | 143.923% |
| Cc1ccc2nc(NCC(=O)O)nc(-c3ccccc3)c2c1 [CBK287002] | 122.475% |
| COc1ccc([C@@]23CC[C@@H](NC(=O)Nc4ccc(-c5csnn5)cc4)C[C@@H]2N(C)CC3)cc1OC [CBK051163T] | 103.894% |
| CC(=O)c1cc(C#N)c(SCC(=O)O)nc1C [CBK270189] | 114.252% |
| O=c1c2sc(-c3ccc(F)cc3)cc2ncn1CC1(O)CCCNC1 (centres unmarked) [CBK306525] | 139.701% |
| Cc1ccnc(NS(=O)(=O)c2ccc(NC(=O)CSc3ccc(Cl)cc3)cc2)n1 [CBK265854] | 152.53% |
| Cc1ccn(CCNC(=O)Cc2coc3cc(C)c(C)cc23)n1 [CBK282578] | 74.7277% |
| Cn1c(SCC(=O)n2c3c(c4ccccc42)CCCC3)nnc1-c1ccco1 [CBK267370] | 143.086% |

Part of the list above in order of length of the SMILES, smallest number first:

| SMILES | % of control remaining |
| --- | --- |
| O=C(c1cnc2ccccc2c1)N1CCc2ccccc21 [CBK200284] | 178.231% |
| OCCN1CCN(c2cncc(-c3cccc(OC(F)(F)F)c3)n2)CC1 [CBK065941] | 115.974% |
| COc1ccc(NC(=O)CSc2nc(O)cc(-c3ccccc3)n2)cc1OC [CBK263657] | 128.354% |

Some of the entries above, reformatted.
SMILES,% of control remaining
CC(=O)c1cc(C#N)c(SCC(=O)O)nc1C [CBK270189],114.252%
O=c1c2sc(-c3ccc(F)cc3)cc2ncn1CC1(O)CCCNC1 (centres unmarked) [CBK306525],139.701%

The list continues:

| SMILES | % of control remaining |
| --- | --- |
| CC1(C)COC(=O)N1C1CCN(C(=O)c2cncc(Br)c2)CC1 [CBK038781] | 101.751% |
| COc1ccc(CSc2nnc(-c3ccco3)n2N)cc1 [CBK267548] | 113.239% |
| Cc1cnc2c(C(=O)N3CC(C(=O)N4CCN(c5ccccc5)CC4)C3)cnn2c1 [CBK285641] | 135.061% |
| CCc1ccc(OCC(O)Cn2nnc(-c3ccc(CN4CCC(C)CC4)cc3)n2)cc1 (centres unmarked) [CBK161437T] | 60.3044% |
| Nc1ncnc2sc3c(c12)CCC3 [CBK097952] | 69.2963% |
| Nc1nc(SCc2ccc(Cl)cc2)nc2sc3c(c12)CCN(Cc1ccccc1)C3 [CBK263724] | 94.7616% |
| CC(=O)Nc1cccc(-c2cnc(N(C)S(C)(=O)=O)c(C(=O)NCc3ccc4c(c3)CCO4)c2)c1 [CBK076609] | 111.45% |
| CC(C)CC(=O)NCCn1nc(-c2cccs2)oc1=O [CBK282342] | 94.5448% |
| N#Cc1ccc(NCc2ccccc2CN2CCCC2CO)cn1 (centres unmarked) [CBK304077] | 91.0552% |
| O=C(c1cnccn1)N1CCN(CCc2ccccc2)CC1 [CBK200224] | 114.22% |
| O=C(CSc1nc[nH]n1)Nc1nsc(-c2ccc(Cl)cc2)n1 [CBK267273] | 99.9073% |
| CCn1cc(C(=O)NC2(c3cccc(OC)c3)CCCC2)cn1 [CBK283750] | 133.65% |
| COc1ccccc1CC(C)NC(=O)c1ccnn1C(C)C (centres unmarked) [CBK282595] | 119.376% |
| CC(=O)NCCN1CC[C@H]2CN(C(=O)c3cc(C)on3)CC[C@H]2CC1=O [CBK288785] | 156.17% |
| Cn1c(Cc2ccc(Cl)cc2)nnc1SCc1nc2ccccc2c(=O)n1-c1cccc(C(F)(F)F)c1 [CBK268425] | 96.3545% |
| CC(=O)Nc1ccc(F)c(NC(=O)NCCC2CCCN2C)c1 (centres unmarked) [CBK304661] | 129.724% |
| FC(F)(F)Oc1cccc(OCCOc2nccnc2N2CCNCC2)c1 [CBK014323G] | 122.806% |
| NC(=O)c1cn[nH]c1C1CCCCN1Cc1cccc2c1CCOC2 (centres unmarked) [CBK304745] | 123.529% |
| S=C(NCCc1ccccc1)NCCN1CCOCC1 [CBK264929] | 100% |
| Cc1ccccc1NC(=O)c1ccccc1Cl [CBK116485] | 136.238% |
| CC(C)(CO)CNc1cncc(-c2cccc(C(F)(F)F)c2)n1 [CBK065248] | 108.575% |
| CNC(=O)c1cccc(NC(=O)c2ccc(C)nc2N2CCOCC2)c1 [CBK106223] | 118.609% |
| Cc1ccc(S(=O)(=O)NCCc2nc3ccccc3n2C)s1 [CBK281398] | 103.729% |
| CC(Sc1ccc(Cl)cc1)C(=O)Nc1ccc(S(=O)(=O)Nc2ccc(Cl)cc2)cc1 (centres unmarked) [CBK264805] | 62.1964% |
| CC(=O)N1CCC(C(=O)NC(=O)NC2CCCCC2)CC1 [CBK034847] | 92.0185% |
| Oc1nccc(Oc2ccnc(Cl)n2)n1 [CBK000010] | 108.844% |
| O=C(O)CCSc1nc2ccccc2[nH]1 [CBK262056] | 100% |

| SMILES | % of control remaining |
| --- | --- |
| COc1ccc2[nH]cc(CCNC(=O)COc3ccc(O)cc3)c2c1 [CBK116227] | 91.3046% |
| CCCc1n[nH]c(=S)n1CC(=O)NCc1ccc(N2CC(C)OC(C)C2)nc1 (centres unmarked) [CBK297741] | 140.925% |
| CC(=O)Nc1ccc(OCC(O)Cn2ncc3ccccc3c2=O)cc1 (centres unmarked) [CBK305567] | 130.03% |
| CCc1nc2ccccc2n1CC(=O)N(C)C(C)c1cccnc1 (centres unmarked) [CBK304017] | 90.095% |
| COc1ccc(-c2cnn(-c3ccccc3CN(C)C)n2)cc1 [CBK112762] | 117.596% |
| Cc1nn2c(-c3ccc(NC(=O)c4cccs4)cc3)nnc2c2ccccc12 [CBK267134] | 145.273% |
| O=C(/C=C/c1cccc([N+](=O)[O-])c1)NC(=S)Nc1ccc(-c2nc3ncccc3o2)cc1 [CBK264391] | 112.207% |
| CSCCC(NC=C1C(=O)CC(C)(C)CC1=O)C(=O)O (centres unmarked) [CBK261311] | 118.669% |
| Cc1cc(C)cc(NC(=O)c2ccccc2NS(=O)(=O)c2ccc(F)c(F)c2F)c1 [CBK113886] | 110.085% |
| CC(CNc1cc(=O)n2ccccc2n1)CN1CCCC1 (centres unmarked) [CBK305270] | 87.4551% |
| COc1cccc(CNc2nccnc2-c2ccsc2)c1OC [CBK037543] | 78.5375% |
| Cn1ncc2c1CCCC2NC(=O)NCc1ccc(C#N)cc1F (centres unmarked) [CBK305193] | 103.82% |
| CN(C)C(=O)C1CN(C(=O)C(C)(C)c2ccccc2F)C1 [CBK281970] | 108.268% |
| CN1CCN(CC2(CNC(=O)c3ccc(C(=O)O)cc3)CC2)CC1 [CBK307517] | 136.488% |
| CC(=O)N[C@@H](CC(C)C)C(=O)Nc1cc(C)nc2ccccc12 [CBK116265] | 114.776% |
| CCc1nn(CC(=O)NC2CC2)c(=O)c2cc3ccsc3n12 [CBK284128] | 91.4921% |
| O=C(O)COc1ccccc1/C=N/NC(=O)Cc1ccc(Br)c2ccccc12 [CBK263116] | 99.4711% |
| CCOc1ncccc1NC(=O)Cc1cccc(OC)c1 [CBK256406] | 149.581% |
| CN(Cc1ccsc1)C(=O)c1cccc(S(=O)(=O)NC(C)(C)C)c1 [CBK305425] | 107.276% |
| Cc1noc(C(C)C)c1C(=O)NC1CCCN(c2ccn(C)n2)C1=O (centres unmarked) [CBK306356] | 140.455% |
| Cc1cc(C)c2c(OCC(=O)NC(C)C)nn(C)c2n1 [CBK306393] | 128.872% |
| Cc1csc2ncc(C(=O)Nc3ccccc3F)c(=O)n12 [CBK287455] | 108.753% |
| COc1cccc(NC(=O)CSc2nnc(-c3ccccc3O)n2-c2ccccc2)c1 [CBK268343] | 86.2094% |
| CCC(C)NC(=O)C1(Cc2ccc(-c3cc(F)ccc3OC)cc2)CCOCC1 (centres unmarked) [CBK285539] | 124.932% |
| O=C(NCCN1CCOCC1)C1CCCN(c2nc3c(-c4ccccc4)csc3c(=O)[nH]2)C1 (centres unmarked) [CBK215509] | 133.553% |
| CC(C)N1CCC[C@H]1c1nc(-c2ccc(N3CCN(C)CC3)nc2)no1 [CBK288881] | 161.505% |
